Experimental data reported in patent US20130065830A1.
Results are given in words; binding and its absence hold for the method and conditions named. In cells and extracts the contact can be indirect. Some results given as binding are weak or reduced against the parent protein; the word gives no strength.

The chains behind the UniProt entries cited, without tags or fusion partners.
UniProt P04797: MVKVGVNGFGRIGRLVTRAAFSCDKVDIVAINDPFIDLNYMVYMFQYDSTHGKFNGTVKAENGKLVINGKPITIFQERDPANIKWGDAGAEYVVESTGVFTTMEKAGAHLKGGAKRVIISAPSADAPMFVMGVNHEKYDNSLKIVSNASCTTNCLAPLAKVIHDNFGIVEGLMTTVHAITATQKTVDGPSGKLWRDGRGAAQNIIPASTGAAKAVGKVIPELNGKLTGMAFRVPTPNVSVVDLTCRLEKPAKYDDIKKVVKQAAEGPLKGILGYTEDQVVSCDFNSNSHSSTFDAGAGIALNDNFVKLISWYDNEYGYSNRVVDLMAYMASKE

Molecular target: glyceraldehyde-3-phosphate dehydrogenase (GAPDH) from Fischer 344 rat substantia nigra homogenate (rat (Fischer 344)) (UniProt P04797)
Assay: pull-down from rat substantia nigra fractions, 2D-PAGE, MALDI-TOF MS

binding: binds
Binder: PPEAPAEDRSL (N-terminal biotin; C-terminal amide) [biotinylated DNSP-11]
